In this assay the target is Synaptobrevin/vesicle-associated membrane protein 2 (human (endogenous in submandibular gland)) (UniProt P63027). As to the kind of experiment: co-IP + affinity purification with mass spectrometry; lysates of control and transplanted human submandibular glands, precleared with protein A/G-agarose, incubated with anti-VAMP-2 antibody-coated protein A/G overnight at 4°C, washed with lysis buffer; SDS/PAGE, Coomassie-stained bands identified by nano-LC-ESI-MS/MS; band intensities normalized to VAMP-2.

Chains of the proteins cited; added tags and fusions are not shown.
UniProt P63027: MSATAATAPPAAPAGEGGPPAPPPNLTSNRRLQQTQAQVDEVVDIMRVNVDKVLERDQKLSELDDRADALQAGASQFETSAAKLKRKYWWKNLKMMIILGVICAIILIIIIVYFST
UniProt P60660: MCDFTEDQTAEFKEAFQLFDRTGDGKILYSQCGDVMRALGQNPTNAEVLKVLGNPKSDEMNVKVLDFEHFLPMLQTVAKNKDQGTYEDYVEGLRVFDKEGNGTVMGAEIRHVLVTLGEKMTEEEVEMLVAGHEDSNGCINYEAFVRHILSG

Results are given in words; binding and its absence hold for the method and conditions named. In cells and extracts the contact can be indirect. A yes stands for co-enrichment or nearness to the bait. Other partners may have been found.

For the molecule “myosin light polypeptide 6 (from UniProt P60660 1-151)”, the binding entry is “binds”.

B1: myosin regulatory light polypeptide 9 (protein, UniProt P24844 1-172)
chain: MSSKRAKAKTTKKRPQRATSNVFAMFDQSQIQEFKEAFNMIDQNRDGFIDKEDLHDMLASLGKNPTDEYLEGMMSEAPGPINFTMFLTMFGEKLNGTDPEDVIRNAFACFDEEASGFIHEDHLRELLTTMGDRFTDEEVDEMYREAPIDKKGNFNYVEFTRILKHGAKDKDD
B1: the binding result is on record as “binds”.

Source of the values: paper PMC5809613.
